Laboratory results reported in the supplement of paper PMC10849652.
Some of the results follow.

By UniProt entry, the sequences of proteins in these tests, tags left out. Where a name states a change or a piece, a line headed by the entry shows the natural chain unless it says otherwise.
UniProt P49720: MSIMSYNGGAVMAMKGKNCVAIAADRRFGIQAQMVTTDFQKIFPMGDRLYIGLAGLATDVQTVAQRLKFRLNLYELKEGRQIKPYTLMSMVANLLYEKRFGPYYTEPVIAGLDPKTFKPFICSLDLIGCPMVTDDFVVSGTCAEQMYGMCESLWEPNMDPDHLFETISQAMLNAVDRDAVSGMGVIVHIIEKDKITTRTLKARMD
UniProt P60484: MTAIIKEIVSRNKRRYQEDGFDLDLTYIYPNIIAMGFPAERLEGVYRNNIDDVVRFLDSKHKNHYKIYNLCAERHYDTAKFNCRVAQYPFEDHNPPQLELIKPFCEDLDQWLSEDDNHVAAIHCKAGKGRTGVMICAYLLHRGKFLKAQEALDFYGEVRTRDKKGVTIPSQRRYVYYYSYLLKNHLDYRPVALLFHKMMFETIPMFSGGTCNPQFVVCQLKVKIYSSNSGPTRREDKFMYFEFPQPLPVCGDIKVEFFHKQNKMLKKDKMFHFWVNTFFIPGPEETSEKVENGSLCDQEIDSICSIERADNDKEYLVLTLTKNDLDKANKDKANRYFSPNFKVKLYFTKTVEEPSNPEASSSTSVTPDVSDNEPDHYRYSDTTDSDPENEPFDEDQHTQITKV
UniProt P61289: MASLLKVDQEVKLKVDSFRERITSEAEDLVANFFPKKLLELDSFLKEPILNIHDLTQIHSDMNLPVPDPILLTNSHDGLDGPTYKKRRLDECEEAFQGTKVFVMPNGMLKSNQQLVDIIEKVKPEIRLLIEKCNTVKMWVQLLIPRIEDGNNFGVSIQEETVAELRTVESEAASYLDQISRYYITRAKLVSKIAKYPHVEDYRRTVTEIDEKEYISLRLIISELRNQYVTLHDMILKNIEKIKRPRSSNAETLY
UniProt Q8TB72: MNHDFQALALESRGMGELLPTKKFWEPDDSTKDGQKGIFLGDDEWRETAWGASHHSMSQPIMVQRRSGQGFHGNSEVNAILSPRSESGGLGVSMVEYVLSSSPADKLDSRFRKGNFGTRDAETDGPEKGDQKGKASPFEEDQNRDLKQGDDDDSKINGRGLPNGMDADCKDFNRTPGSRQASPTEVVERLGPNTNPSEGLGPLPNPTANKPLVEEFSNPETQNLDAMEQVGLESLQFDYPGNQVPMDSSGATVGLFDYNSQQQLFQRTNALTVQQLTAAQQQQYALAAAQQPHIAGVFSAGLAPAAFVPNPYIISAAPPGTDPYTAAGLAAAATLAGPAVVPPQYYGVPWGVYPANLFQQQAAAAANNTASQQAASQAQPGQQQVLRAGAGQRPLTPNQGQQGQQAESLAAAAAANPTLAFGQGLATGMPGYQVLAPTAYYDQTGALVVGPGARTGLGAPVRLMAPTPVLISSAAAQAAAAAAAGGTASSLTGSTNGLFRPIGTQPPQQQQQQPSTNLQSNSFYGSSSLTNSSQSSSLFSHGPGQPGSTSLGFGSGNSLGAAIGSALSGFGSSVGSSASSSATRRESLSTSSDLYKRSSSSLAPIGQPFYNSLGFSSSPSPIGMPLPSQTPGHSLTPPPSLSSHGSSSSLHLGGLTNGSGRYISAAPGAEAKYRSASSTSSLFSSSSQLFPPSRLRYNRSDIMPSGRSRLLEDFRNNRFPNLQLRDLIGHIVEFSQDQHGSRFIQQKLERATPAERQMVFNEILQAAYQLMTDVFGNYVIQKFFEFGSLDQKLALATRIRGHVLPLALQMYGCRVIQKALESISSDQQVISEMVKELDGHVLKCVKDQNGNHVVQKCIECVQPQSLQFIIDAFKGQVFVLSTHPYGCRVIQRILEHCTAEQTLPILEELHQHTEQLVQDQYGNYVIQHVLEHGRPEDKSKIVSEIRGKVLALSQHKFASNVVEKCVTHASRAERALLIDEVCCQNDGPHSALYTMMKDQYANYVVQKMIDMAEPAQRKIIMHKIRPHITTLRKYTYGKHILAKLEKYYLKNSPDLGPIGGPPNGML
UniProt P20962: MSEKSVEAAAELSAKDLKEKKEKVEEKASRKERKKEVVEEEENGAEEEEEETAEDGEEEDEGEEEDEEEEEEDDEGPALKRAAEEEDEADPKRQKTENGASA
UniProt Q16378: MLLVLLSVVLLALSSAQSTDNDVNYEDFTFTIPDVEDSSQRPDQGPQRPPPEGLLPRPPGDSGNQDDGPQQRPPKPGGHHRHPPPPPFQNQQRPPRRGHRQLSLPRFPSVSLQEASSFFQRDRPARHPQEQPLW
UniProt Q9UHX1: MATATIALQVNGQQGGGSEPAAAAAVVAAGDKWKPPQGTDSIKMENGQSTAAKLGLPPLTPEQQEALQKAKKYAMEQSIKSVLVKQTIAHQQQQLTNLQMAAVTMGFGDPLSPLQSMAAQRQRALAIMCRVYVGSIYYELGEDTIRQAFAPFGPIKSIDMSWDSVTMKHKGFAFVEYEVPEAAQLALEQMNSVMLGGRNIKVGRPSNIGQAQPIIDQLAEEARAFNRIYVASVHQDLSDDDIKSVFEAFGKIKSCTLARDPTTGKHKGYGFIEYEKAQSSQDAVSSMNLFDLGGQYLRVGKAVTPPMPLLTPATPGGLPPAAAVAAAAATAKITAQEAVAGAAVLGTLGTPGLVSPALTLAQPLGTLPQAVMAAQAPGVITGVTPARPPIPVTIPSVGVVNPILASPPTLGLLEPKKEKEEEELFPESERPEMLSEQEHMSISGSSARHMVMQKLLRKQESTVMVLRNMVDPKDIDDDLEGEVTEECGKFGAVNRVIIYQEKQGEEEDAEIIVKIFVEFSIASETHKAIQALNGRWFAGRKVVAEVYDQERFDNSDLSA
UniProt O00487, whole entry, looked up: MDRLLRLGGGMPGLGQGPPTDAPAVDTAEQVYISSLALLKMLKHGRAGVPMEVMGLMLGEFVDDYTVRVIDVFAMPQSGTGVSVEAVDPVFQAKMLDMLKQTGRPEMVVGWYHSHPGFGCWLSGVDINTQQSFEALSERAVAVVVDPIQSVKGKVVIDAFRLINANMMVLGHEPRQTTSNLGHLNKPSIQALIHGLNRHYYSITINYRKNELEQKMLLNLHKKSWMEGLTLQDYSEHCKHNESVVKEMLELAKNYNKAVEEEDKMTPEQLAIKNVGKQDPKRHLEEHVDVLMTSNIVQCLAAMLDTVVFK
UniProt Q12913: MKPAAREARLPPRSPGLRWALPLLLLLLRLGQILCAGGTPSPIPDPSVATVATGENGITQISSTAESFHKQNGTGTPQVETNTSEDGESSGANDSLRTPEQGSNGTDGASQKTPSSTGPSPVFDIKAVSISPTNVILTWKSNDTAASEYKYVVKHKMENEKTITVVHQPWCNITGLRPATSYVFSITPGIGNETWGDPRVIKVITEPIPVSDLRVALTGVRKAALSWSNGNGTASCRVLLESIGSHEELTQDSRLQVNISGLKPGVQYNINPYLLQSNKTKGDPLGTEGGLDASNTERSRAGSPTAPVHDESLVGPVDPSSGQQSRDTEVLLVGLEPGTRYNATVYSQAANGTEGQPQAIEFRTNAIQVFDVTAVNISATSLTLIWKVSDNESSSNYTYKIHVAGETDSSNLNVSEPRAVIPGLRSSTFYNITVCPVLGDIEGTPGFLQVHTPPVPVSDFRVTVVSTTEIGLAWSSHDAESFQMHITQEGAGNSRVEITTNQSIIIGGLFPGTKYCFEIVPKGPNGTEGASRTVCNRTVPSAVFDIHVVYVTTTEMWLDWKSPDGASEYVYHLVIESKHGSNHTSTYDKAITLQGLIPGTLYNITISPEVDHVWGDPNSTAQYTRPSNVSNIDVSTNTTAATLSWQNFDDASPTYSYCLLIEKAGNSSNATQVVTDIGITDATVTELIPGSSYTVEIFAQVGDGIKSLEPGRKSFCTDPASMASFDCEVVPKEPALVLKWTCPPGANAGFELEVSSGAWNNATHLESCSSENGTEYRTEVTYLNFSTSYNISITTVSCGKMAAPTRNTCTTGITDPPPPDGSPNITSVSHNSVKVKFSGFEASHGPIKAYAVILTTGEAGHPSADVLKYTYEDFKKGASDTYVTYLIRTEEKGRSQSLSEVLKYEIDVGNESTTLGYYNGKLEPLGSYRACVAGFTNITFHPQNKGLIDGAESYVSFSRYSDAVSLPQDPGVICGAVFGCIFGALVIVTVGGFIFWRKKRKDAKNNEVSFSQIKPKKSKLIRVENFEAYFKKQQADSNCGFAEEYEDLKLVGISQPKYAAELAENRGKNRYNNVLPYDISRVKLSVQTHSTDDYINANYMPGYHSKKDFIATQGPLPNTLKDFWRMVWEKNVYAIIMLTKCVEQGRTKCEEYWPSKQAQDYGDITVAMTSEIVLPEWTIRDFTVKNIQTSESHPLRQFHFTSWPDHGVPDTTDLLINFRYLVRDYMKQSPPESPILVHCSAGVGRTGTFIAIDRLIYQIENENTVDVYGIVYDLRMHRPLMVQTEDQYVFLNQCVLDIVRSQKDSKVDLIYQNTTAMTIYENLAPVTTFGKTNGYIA
UniProt P48634: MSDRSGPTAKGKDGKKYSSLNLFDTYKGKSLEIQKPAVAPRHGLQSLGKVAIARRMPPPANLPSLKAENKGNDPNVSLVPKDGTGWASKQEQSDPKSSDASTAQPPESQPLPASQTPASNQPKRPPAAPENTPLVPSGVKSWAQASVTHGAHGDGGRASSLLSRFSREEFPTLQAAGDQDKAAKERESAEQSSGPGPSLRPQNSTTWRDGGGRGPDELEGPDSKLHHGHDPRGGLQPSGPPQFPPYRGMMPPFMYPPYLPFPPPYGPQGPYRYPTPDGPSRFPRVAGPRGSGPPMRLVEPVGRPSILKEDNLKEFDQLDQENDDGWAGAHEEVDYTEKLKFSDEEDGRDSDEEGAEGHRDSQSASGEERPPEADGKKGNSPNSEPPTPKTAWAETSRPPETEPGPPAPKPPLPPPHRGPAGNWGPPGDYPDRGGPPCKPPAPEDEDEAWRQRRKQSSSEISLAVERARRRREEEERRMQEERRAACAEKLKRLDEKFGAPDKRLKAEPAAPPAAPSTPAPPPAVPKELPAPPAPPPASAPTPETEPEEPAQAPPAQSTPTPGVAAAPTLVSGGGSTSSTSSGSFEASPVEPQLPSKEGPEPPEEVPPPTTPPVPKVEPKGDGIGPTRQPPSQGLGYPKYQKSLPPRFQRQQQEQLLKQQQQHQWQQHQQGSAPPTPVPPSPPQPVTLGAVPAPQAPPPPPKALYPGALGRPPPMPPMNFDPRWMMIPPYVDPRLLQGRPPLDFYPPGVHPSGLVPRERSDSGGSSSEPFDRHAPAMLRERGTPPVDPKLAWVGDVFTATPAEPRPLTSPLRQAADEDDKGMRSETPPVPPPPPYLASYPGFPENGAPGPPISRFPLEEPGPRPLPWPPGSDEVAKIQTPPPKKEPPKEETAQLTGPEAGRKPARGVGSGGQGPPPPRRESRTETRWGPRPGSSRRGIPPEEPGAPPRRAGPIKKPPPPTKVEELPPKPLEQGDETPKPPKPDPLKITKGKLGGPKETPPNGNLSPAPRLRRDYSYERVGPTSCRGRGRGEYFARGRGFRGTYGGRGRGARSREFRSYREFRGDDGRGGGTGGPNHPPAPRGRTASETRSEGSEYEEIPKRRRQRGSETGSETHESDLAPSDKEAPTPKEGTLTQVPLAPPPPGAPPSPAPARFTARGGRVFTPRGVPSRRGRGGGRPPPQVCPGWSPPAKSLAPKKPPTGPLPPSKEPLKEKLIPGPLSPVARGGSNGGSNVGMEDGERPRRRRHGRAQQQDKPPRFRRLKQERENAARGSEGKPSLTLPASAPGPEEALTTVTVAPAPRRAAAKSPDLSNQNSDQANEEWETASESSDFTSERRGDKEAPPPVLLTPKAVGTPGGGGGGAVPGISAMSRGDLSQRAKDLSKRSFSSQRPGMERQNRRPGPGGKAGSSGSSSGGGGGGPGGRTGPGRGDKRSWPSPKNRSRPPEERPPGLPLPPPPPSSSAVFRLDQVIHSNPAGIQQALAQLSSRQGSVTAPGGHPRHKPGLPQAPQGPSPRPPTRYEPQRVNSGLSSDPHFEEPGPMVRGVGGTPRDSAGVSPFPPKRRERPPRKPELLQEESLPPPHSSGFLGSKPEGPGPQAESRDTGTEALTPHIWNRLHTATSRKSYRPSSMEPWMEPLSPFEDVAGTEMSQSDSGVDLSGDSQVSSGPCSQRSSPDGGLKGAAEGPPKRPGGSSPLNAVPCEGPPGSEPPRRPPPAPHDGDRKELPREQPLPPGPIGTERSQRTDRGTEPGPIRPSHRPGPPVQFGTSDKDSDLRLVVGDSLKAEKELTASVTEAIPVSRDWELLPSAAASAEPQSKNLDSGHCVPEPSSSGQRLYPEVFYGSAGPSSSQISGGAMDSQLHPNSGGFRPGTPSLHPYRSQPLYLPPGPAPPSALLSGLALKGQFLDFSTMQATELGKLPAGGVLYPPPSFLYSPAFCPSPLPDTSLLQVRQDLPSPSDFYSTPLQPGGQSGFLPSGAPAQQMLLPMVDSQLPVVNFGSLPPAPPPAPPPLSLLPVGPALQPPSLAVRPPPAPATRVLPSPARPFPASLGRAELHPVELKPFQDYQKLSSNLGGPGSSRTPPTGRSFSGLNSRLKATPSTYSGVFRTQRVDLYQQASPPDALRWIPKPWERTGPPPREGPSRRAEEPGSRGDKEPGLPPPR

Compound: COC(=O)[C@H](CCSC)NC(=O)C1=C(C=C(C=C1)NC[C@H](CS)N)C2=CC=CC=C2
Assay: log2 fold change, soluble protein after heating vs DMSO (PISA); higher = thermal stabilisation; K562 lysate, 10 uM; active = over 0.2 and 3.5 SD of the protein, either way, in both replicates (recomputed)
Method in brief: (§1)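 Quantification was by TMTpro 16plex LC-MS/MS with equalised channel sums, applied to the supernatant after 21,000xg for 90 min. Samples were crude K562 extract at 1 mg/mL protein in PBS pH 7.4 with 1 mM MgCl2, treated with 10 μM compound for 30 min, heated for 3 min across 48°C-58°C, pooled and brought to 0.5% NP-40 at 4°C. Values are log-two fold changes in thermal stability relative to solvent controls, from duplicates.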

log2 fold change, inactive:
PTRH1 (UniProt Q86Y79) 0.033
PRSS21 (UniProt Q9Y6M0) -0.008
PSMB3 (UniProt P49720) -0.013
PTPA isoform 2 (UniProt Q15257) -0.031
PSMD13 (UniProt Q9UNM6) 0.024
PSMF1 (UniProt Q5QPM7) -0.092
PTEN isoform 2 (UniProt P60484) -0.012
PTK2 (UniProt Q05397) -0.126
PSME3 isoform 2 (UniProt P61289) -0.044
PSME2 (UniProt Q9UL46) -0.002
PUM2 (UniProt Q8TB72) 0.02
PSMB2, A0A087WVV1 -0.043
PRPH isoform 2 (UniProt P41219) -0.178
PTMS (UniProt P20962) -0.043
PTBP3 isoform 4 (UniProt O95758) 0.047
PTCD3 (UniProt Q96EY7) -0.033
PRR4 (UniProt Q16378) 0.126
PRR14L (UniProt Q5THK1) -0.008
PUF60 isoform 2 (UniProt Q9UHX1) -0.12
PSMD14 (UniProt O00487) 0.055
PRSS50 (UniProt Q9UI38) -0.156
PTPRJ (UniProt Q12913) -0.068
PSMB10 (UniProt P40306) 0.049
PSMB8 (UniProt P28062) -0.058
PSEN2 (UniProt P49810) -0.158
PTPN7 isoform 3 (UniProt P35236) 0.122
PRRC2A (UniProt P48634) -0.044

Compound: COc1cc(Nc2ncc3c(n2)-c2ccc(Cl)cc2C(c2c(F)cccc2OC)=NC3)ccc1C(=O)O [alisertib]
Assay: as above
Method in brief: as §1

log2 fold change, inactive:
PSMB3 (UniProt P49720) -0.014
PTPA isoform 2 (UniProt Q15257) -0.013
PSMD13 (UniProt Q9UNM6) 0.011
PTEN isoform 2 (UniProt P60484) 0.033
PTK2 (UniProt Q05397) 0.17
PSME3 isoform 2 (UniProt P61289) 0.007
PSME2 (UniProt Q9UL46) 0.023
PUM2 (UniProt Q8TB72) 0.031
PRXL2A (UniProt Q9BRX8) 0.012
PRPH isoform 2 (UniProt P41219) -0.012
PTMS (UniProt P20962) -0.012
PTBP3 isoform 4 (UniProt O95758) 0
PTCD3 (UniProt Q96EY7) 0.027
PRR4 (UniProt Q16378) 0.075
PSMD4 (UniProt Q5VWC4) 0.065
PRR14L (UniProt Q5THK1) -0.059
PUF60 isoform 2 (UniProt Q9UHX1) -0.076
PSMD14 (UniProt O00487) 0.01
PTPRJ (UniProt Q12913) -0.098
PSEN2 (UniProt P49810) 0.178
PTPN7 isoform 3 (UniProt P35236) 0.021
PRRC2A (UniProt P48634) 0.016
PSMA7 (UniProt H0Y586) 0.134

Compound: COc1cc2nc(-c3cc(F)ccc3O)nc(N[C@@H]3CNC[C@H]3C(C)(C)O)c2cc1OC
Assay: as above
Method in brief: as §1

log2 fold change, inactive:
PRSS21 (UniProt Q9Y6M0) 0.019
PSMB3 (UniProt P49720) 0.012
PTPA isoform 2 (UniProt Q15257) 0.004
PSMD13 (UniProt Q9UNM6) 0.009
PTEN isoform 2 (UniProt P60484) -0.073
PTK2 (UniProt Q05397) 0.113
PSME3 isoform 2 (UniProt P61289) 0.014
PSME2 (UniProt Q9UL46) 0.01
PUM2 (UniProt Q8TB72) 0.035
PRPH isoform 2 (UniProt P41219) -0.028
PTMS (UniProt P20962) 0.021
PTBP3 isoform 4 (UniProt O95758) -0.016
PTCD3 (UniProt Q96EY7) -0.029
PRR4 (UniProt Q16378) -0.011
PUF60 isoform 2 (UniProt Q9UHX1) 0.038
PSMD14 (UniProt O00487) -0.034
PRSS50 (UniProt Q9UI38) 0.031
PTPRJ (UniProt Q12913) 0.031
PSMB10 (UniProt P40306) 0.026
PWWP2B (UniProt Q6NUJ5) 0.037
PSMB8 (UniProt P28062) -0.033
PTPN7 isoform 3 (UniProt P35236) -0.023
PRRC2A (UniProt P48634) 0.005
PSMA7 (UniProt H0Y586) -0.051
